Results on 4 substances are retold here after PMC7256328.

Results are given in words; binding and its absence hold for the method and conditions named. In cells and extracts the contact can be indirect. Binding can be weak; no strength is given. Where a sequence is shown, tags or fusion partners need not be part of it.

The target in assay [1] is T1, GFP-NOP58 (UniProt Q9Y2X3).
T1 sequence: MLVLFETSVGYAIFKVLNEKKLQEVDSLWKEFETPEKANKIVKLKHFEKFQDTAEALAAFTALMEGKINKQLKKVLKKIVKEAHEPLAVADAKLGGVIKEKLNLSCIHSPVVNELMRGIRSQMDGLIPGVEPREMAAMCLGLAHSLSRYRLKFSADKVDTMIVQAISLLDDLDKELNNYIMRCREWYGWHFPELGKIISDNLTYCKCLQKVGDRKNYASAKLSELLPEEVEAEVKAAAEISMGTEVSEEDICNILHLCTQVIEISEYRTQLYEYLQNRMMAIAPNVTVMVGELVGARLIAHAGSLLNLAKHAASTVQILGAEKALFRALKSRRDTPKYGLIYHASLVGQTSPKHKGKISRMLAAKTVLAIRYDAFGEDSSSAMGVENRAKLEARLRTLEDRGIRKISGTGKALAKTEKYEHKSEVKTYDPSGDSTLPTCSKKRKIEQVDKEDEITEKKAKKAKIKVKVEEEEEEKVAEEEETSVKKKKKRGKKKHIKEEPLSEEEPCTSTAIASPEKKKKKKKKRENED
Description: co-IP; HEK293T co-transfected; IP with GFP or rabbit IgG, western blot of Myc, GFP and AcBMAL1K538; with and without Myc-CLOCK. (In general: Immunoblotting shows a protein as a band on a membrane.)

In assay [2] the target is T1, GFP-NOP58. In words: FRET or BRET; FLIM-FRET live cell imaging in HEK293T; GFP-NOP58 donor, RFP-BMAL1 acceptor; phasor analysis.

On to Myc-BMAL1K538R, for which, in the assay with GFP-NOP58 [1], the binding entry is given as “binds”. Same read-out and setting: the entry for Myc-BMAL1 (wild type) is “binds”. As for RFP-BMAL1, the binding entry in the assay with GFP-NOP58 [2] was “binds”. Regarding Myc-BMAL1K538Q, the binding result in the assay with GFP-NOP58 [1] is on record as “binds”.
